The supplement of paper PMC3334620
Whole data set: some 33,000 sequences, median “E-score (-0.5 to 0.5)” near -0.0059, cut for the highest 2% near 0.26. Some of the results follow.

Target: T1, Cin5 (UniProt P40917)
T1 sequence: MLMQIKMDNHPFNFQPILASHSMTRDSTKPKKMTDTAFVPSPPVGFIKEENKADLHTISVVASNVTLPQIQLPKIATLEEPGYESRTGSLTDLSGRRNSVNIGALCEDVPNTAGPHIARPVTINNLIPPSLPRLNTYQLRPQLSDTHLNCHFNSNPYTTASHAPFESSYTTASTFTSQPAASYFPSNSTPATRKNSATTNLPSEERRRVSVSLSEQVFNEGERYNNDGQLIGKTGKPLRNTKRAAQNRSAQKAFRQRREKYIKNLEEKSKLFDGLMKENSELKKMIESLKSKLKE
Assay: PBM E-score (8-mer binding enrichment) (E-score (-0.5 to 0.5)); higher = stronger / more preferred TF binding
Details: protein concentration: 100 nM; construct: GST-full length
How it was run: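 Using PURExpress in vitro transcription/translation, GST-tagged yeast transcription factors were made in full-length or DNA-binding-domain form. These were applied at about 100-200 nM to double-stranded universal all-10-mer Agilent arrays, and bound protein was detected with fluorescent anti-GST. Scans were normalised with masliner before the Universal PBM Analysis Suite assigned E-scores to ungapped eight-base words pooled with their reverse complements.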

Compared with ACTACACC, ACCCGATC is higher in “PBM E-score” value: 0.0233 for the first, 0.05 for the second.

Going from CACCTAGG to AAGTGCAG, the “PBM E-score” value falls from -0.103 to -0.204.

Going from ACAACTGT to CTAGCATC, the “PBM E-score” value falls from -0.0602 to -0.0819.

First: CGGGACGC
Second: AAGAGCTC
The “PBM E-score” value of the first is lower: -0.161 for the first, -0.122 for the second.

Going from AGTCAATC to AAGAGGGT, the “PBM E-score” value falls from 0.0732 to -0.136.

First: AGTGCCTA
Second: ACTGCGAG
The “PBM E-score” value of the first is lower: -0.229 for the first, -0.0805 for the second.

Compared with AATTTGGG, ATCCCAAT is lower in “PBM E-score” value: 0.153 for the first, -0.00753 for the second.

First: AGAGCGCA
Second: AACTCGAC
The “PBM E-score” value of the first is lower: -0.168 for the first, 0.142 for the second.

First: ATGTATAG
Second: AGTTCGTC
The “PBM E-score” value of the first is higher: 0.14 for the first, 0.117 for the second.

Going from CACCGGCA to CTGCGTCA, the “PBM E-score” value falls from -0.0317 to -0.0381.

Compared with CGCGTCCC, ATTGCCTA is higher in “PBM E-score” value: -0.0951 for the first, -0.0655 for the second.

Going from ACTGGGCT to GTTAAGGA, the “PBM E-score” value rises from -0.14 to -0.0227.

First: AGTAATTG
Second: AGACTGAC
The “PBM E-score” value of the first is higher: 0.132 for the first, -0.0929 for the second.

First: CTTGCCTA
Second: GCACGCGC
The “PBM E-score” value of the first is higher: -0.0846 for the first, -0.101 for the second.

First: ACGAGATC
Second: AGGCTTCG
The “PBM E-score” value of the first is higher: 0.00964 for the first, -0.176 for the second.

First: ACGCTCCG
Second: GATCTTAA
The “PBM E-score” value of the first is lower: -0.0736 for the first, -0.0435 for the second.

First: GACACGTC
Second: CTTCAAGA
The “PBM E-score” value of the first is higher: -0.129 for the first, -0.145 for the second.

Compared with AGCGAGCG, GATATTAA is higher in “PBM E-score” value: -0.0261 for the first, 0.282 for the second.

First: GATCTTAC
Second: GCTGAAGC
The “PBM E-score” value of the first is higher: -0.0363 for the first, -0.0411 for the second.

Compared with CTCTCTTC, AAGCTCAA is higher in “PBM E-score” value: -0.158 for the first, -0.0289 for the second.

First: AACTTTAG
Second: CGAGGCGA
The “PBM E-score” value of the first is higher: 0.0677 for the first, -0.0442 for the second.

Compared with AGCCCTCC, AATACACG is higher in “PBM E-score” value: -0.247 for the first, 0.0305 for the second.

First: CGACATGC
Second: AGTTACGA
The “PBM E-score” value of the first is lower: 0.13 for the first, 0.207 for the second.

Going from AGGCGGAC to GACTTGGA, the “PBM E-score” value rises from -0.0887 to -0.051.

Going from CGACGAAA to AATTCCAT, the “PBM E-score” value rises from 0.0766 to 0.152.

First: CGGTCTGC
Second: ATTGTCCC
The “PBM E-score” value of the first is lower: -0.184 for the first, -0.0881 for the second.

Compared with GATAACCC, ACCCGGTG is higher in “PBM E-score” value: -0.088 for the first, -0.065 for the second.

First: CAAATGGC
Second: ACGATGAA
The “PBM E-score” value of the first is lower: -0.037 for the first, 0.0842 for the second.

Compared with AAAGAAGA, ACGGTGGC is lower in “PBM E-score” value: 0.0185 for the first, -0.0662 for the second.

First: CGTTGGAC
Second: CCGGTATC
The “PBM E-score” value of the first is lower: -0.283 for the first, -0.0551 for the second.

Going from AACGCAGG to ACCGTAGA, the “PBM E-score” value rises from -0.0727 to 0.0226.

Going from GTACTTCA to AACCACCG, the “PBM E-score” value falls from 0.279 to -0.0288.

First: ACGCGGAA
Second: CTATCGAA
The “PBM E-score” value of the first is higher: 0.159 for the first, 0.0827 for the second.

Compared with GACATTTA, CATCATCA is higher in “PBM E-score” value: -0.0604 for the first, 0.0389 for the second.

First: AGCACTCA
Second: CGTACACG
The “PBM E-score” value of the first is lower: 0.0608 for the first, 0.0779 for the second.

First: AAGGGCGG
Second: ACGACACC
The “PBM E-score” value of the first is lower: 0.0085 for the first, 0.0663 for the second.

Going from CATGCAAA to CATCTCAG, the “PBM E-score” value rises from 0.0998 to 0.268.

Compared with CAGCTGCG, CATAACAC is higher in “PBM E-score” value: -0.128 for the first, 0.118 for the second.

Going from CACCATAG to CCAACCTA, the “PBM E-score” value rises from -0.153 to -0.0695.

First: GGCCAAAA
Second: AGATGCGG
The “PBM E-score” value of the first is lower: -0.0565 for the first, 0.082 for the second.

First: ACACTACT
Second: CGAATCCC
The “PBM E-score” value of the first is higher: 0.14 for the first, -0.0727 for the second.

Compared with AAATTCAA, CATCCTAA is lower in “PBM E-score” value: 0.131 for the first, 0.0804 for the second.

Going from TGACTTAA to ACACAAGC, the “PBM E-score” value falls from 0.268 to 0.0481.

Compared with CTTTGTAC, ATACCCAT is higher in “PBM E-score” value: -0.0254 for the first, 0.141 for the second.

Going from AACACGTG to ACTGCCAG, the “PBM E-score” value falls from 0.17 to -0.067.

Compared with GGTCTTAA, CTAGGCCA is higher in “PBM E-score” value: -0.326 for the first, -0.0934 for the second.

Going from TCTTGAAA to CATGACAA, the “PBM E-score” value falls from 0.182 to 0.0097.

First: GAGAATAC
Second: CCCCGTCC
The “PBM E-score” value of the first is higher: 0.161 for the first, -0.297 for the second.

Going from AAGCCGCG to CCGCATGA, the “PBM E-score” value falls from -0.0409 to -0.136.

Going from ACGCCATA to CCTCTAGC, the “PBM E-score” value falls from 0.134 to -0.167.

First: CAGCCAGG
Second: ATAGTATC
The “PBM E-score” value of the first is lower: -0.173 for the first, 0.174 for the second.

Compared with AATGGACC, ACCTGATG is lower in “PBM E-score” value: 0.0615 for the first, -0.0591 for the second.

Going from AGCAAGTA to ACATTTGC, the “PBM E-score” value rises from 0.0575 to 0.14.

First: ACAGAATG
Second: AAAACGCA
The “PBM E-score” value of the first is higher: 0.0905 for the first, -0.00299 for the second.

Going from ACAACCCG to GGCCGCTA, the “PBM E-score” value falls from -0.0389 to -0.289.

First: AATTCGGG
Second: AAAGCCAG
The “PBM E-score” value of the first is higher: -0.0241 for the first, -0.0892 for the second.

Going from CTGCTATC to GGTCTTGA, the “PBM E-score” value falls from 0.0831 to -0.134.

Going from CTGAGGAA to AGGGTTAA, the “PBM E-score” value falls from -0.151 to -0.159.

Compared with CCGCTGCC, CAAATACC is higher in “PBM E-score” value: -0.052 for the first, 0.0642 for the second.

Going from ATGCGAGA to ACGACGCC, the “PBM E-score” value falls from 0.00541 to -0.276.

Going from CATCAAAG to AAACTATA, the “PBM E-score” value rises from -0.0276 to 0.183.

Going from AAACCTTA to ACTACGTG, the “PBM E-score” value falls from 0.0451 to -0.223.

Compared with CACCGTGG, CAGTCCGC is higher in “PBM E-score” value: -0.302 for the first, -0.123 for the second.

Compared with AGCTAAAG, GGCTGCGA is lower in “PBM E-score” value: -0.0853 for the first, -0.109 for the second.

First: ACATATAC
Second: AGGCAAGG
The “PBM E-score” value of the first is higher: 0.0358 for the first, -0.277 for the second.

Compared with CGGCAGGC, ACTGGGAT is higher in “PBM E-score” value: -0.223 for the first, 0.0399 for the second.

First: ATGGACGG
Second: GGAGTCGA
The “PBM E-score” value of the first is higher: 0.128 for the first, -0.0634 for the second.

Compared with CGTACGAC, CAGATCAC is higher in “PBM E-score” value: -0.199 for the first, -0.0263 for the second.

Going from CGTAATTA to CGATGGAG, the “PBM E-score” value falls from 0.197 to -0.0143.

First: GTGATTCA
Second: CGGCGGGC
The “PBM E-score” value of the first is higher: 0.0124 for the first, -0.0846 for the second.

Going from ACGCTGGG to GGTAGTTA, the “PBM E-score” value rises from -0.273 to 0.0876.

Going from GCACGCAA to CGCCTAGC, the “PBM E-score” value falls from -0.132 to -0.21.

First: CGCCTACA
Second: AGTAACAA
The “PBM E-score” value of the first is lower: 0.0039 for the first, 0.15 for the second.

Compared with CTACAGAG, GGAATATA is higher in “PBM E-score” value: -0.136 for the first, 0.221 for the second.

Going from ATGGTGGC to AAAAGTGA, the “PBM E-score” value rises from -0.252 to 0.112.

Compared with GGAACGGA, GAGTCATA is higher in “PBM E-score” value: 0.0175 for the first, 0.043 for the second.

First: ATATTTAC
Second: CATGCAAG
The “PBM E-score” value of the first is higher: 0.159 for the first, 0.0974 for the second.

Going from CACGAGGA to CCGAGCTA, the “PBM E-score” value rises from -0.17 to 0.0512.

Compared with AGATGAGC, TATGTAGA is higher in “PBM E-score” value: 0.0118 for the first, 0.0278 for the second.

Compared with ATCCTGTA, AGCAAATG is higher in “PBM E-score” value: -0.0318 for the first, 0.0431 for the second.

First: GGCATTAC
Second: TAGAGACA
The “PBM E-score” value of the first is higher: 0.186 for the first, -0.17 for the second.

Going from GAGATCTC to CTGCGTCC, the “PBM E-score” value falls from -0.0335 to -0.22.

Compared with CAATCGGG, GGCTTTAA is lower in “PBM E-score” value: -0.0378 for the first, -0.182 for the second.

First: CGCGTCAA
Second: ATCGTGAG
The “PBM E-score” value of the first is higher: 0.00724 for the first, -0.0672 for the second.

Going from ATACTAAA to AGCCAAAC, the “PBM E-score” value falls from 0.265 to -0.0159.

Going from CGAATCTC to GCATGCAC, the “PBM E-score” value rises from -0.151 to 0.00446.
